Drawing on paper PMC4057933, this text covers binding for 5 molecules.

Chains of the proteins cited; added tags and fusions are not shown.
UniProt P12520: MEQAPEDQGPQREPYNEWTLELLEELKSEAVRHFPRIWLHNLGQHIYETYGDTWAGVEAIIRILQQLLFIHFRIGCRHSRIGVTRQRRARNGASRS

Assay in all cases: co-IP
For assay [1], the target named is T1, Myc-TAK1 (transforming growth factor-β-activated kinase 1) (UniProt O43318).
T1 sequence: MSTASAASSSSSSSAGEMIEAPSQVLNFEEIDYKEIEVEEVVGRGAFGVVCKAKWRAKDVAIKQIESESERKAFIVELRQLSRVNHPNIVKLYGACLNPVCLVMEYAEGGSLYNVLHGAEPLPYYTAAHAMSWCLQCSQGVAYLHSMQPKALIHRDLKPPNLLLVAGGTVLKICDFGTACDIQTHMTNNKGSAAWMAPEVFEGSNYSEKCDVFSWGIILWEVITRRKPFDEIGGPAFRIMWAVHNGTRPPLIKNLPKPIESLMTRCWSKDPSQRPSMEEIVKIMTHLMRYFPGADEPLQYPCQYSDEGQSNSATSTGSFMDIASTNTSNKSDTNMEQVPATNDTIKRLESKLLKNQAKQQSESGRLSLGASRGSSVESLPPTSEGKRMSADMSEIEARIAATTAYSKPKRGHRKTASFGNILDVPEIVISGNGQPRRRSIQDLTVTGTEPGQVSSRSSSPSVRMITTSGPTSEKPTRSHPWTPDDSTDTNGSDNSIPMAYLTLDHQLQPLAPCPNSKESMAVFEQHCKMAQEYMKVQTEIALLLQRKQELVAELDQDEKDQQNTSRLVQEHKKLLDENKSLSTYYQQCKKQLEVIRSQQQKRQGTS

The target in assay [2] is T2, endogenous TAK1 (transforming growth factor-β-activated kinase 1) (human (endogenous in HEK293T)) (UniProt O43318).
T2 sequence: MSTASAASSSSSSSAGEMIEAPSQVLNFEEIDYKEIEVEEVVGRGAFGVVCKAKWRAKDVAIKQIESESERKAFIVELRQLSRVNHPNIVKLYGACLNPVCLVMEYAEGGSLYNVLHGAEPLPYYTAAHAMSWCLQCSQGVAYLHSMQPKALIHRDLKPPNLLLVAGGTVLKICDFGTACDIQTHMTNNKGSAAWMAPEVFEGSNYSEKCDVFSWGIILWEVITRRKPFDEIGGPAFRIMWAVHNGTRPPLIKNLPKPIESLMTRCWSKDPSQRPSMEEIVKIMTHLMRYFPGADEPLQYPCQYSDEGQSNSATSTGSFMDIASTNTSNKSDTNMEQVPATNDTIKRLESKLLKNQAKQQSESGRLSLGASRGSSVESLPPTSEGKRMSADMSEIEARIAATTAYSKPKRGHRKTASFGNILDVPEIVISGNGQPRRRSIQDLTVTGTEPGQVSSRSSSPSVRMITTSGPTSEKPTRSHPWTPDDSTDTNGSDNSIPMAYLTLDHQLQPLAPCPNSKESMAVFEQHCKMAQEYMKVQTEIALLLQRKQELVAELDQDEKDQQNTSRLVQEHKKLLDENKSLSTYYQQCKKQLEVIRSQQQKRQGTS

Assay [3] concerns the target Flag-Vpr (HIV-1 viral protein R, from pNL4-3) (HIV-1 (NL4-3 strain)) (UniProt P12520).

Results are given in words; binding and its absence hold for the method and conditions named. In cells and extracts the contact can be indirect. Some entries that bind do so weakly or less than the wild type. For part of these data: Where a sequence is shown, tags or fusion partners need not be part of it.

Turning to “Flag-Vpr (HIV-1 viral protein R, from pNL4-3) (from UniProt P12520 1-96)”, the binding entry in assay [1] and in assay [2] was “binds” each time.

B1: endogenous TAB2 (TAK1 binding protein 2) (protein, UniProt Q9NYJ8 1-693)
chain: MAQGSHQIDFQVLHDLRQKFPEVPEVVVSRCMLQNNNNLDACCAVLSQESTRYLYGEGDLNFSDDSGISGLRNHMTSLNLDLQSQNIYHHGREGSRMNGSRTLTHSISDGQLQGGQSNSELFQQEPQTAPAQVPQGFNVFGMSSSSGASNSAPHLGFHLGSKGTSSLSQQTPRFNPIMVTLAPNIQTGRNTPTSLHIHGVPPPVLNSPQGNSIYIRPYITTPGGTTRQTQQHSGWVSQFNPMNPQQVYQPSQPGPWTTCPASNPLSHTSSQQPNQQGHQTSHVYMPISSPTTSQPPTIHSSGSSQSSAHSQYNIQNISTGPRKNQIEIKLEPPQRNNSSKLRSSGPRTSSTSSSVNSQTLNRNQPTVYIAASPPNTDELMSRSQPKVYISANAATGDEQVMRNQPTLFISTNSGASAASRNMSGQVSMGPAFIHHHPPKSRAIGNNSATSPRVVVTQPNTKYTFKITVSPNKPPAVSPGVVSPTFELTNLLNHPDHYVETENIQHLTDPTLAHVDRISETRKLSMGSDDAAYTQALLVHQKARMERLQRELEIQKKKLDKLKSEVNEMENNLTRRRLKRSNSISQIPSLEEMQQLRSCNRQLQIDIDCLTKEIDLFQARGPHFNPSAIHNFYDNIGFVGPVPPKPKDQRSIIKTPKTQDTEDDEGAQWNCTACTFLNHPALIRCEQCEMPRHF
As to B1, the binding result in assay [2] is “binds”.

B2: endogenous TAB3 (TAK1 binding protein 3) (protein, UniProt Q8N5C8 1-712)
chain: MAQSSPQLDIQVLHDLRQRFPEIPEGVVSQCMLQNNNNLEACCRALSQESSKYLYMEYHSPDDNRMNRNRLLHINLGIHSPSSYHPGDGAQLNGGRTLVHSSSDGHIDPQHAAGKQLICLVQEPHSAPAVVAATPNYNPFFMNEQNRSAATPPSQPPQQPSSMQTGMNPSAMQGPSPPPPPPSYMHIPRYSTNPITVTVSQNLPSGQTVPRALQILPQIPSNLYGSPGSIYIRQTSQSSSGRQTPQSTPWQSSPQGPVPHYSQRPLPVYPHQQNYQPSQYSPKQQQIPQSAYHSPPPSQCPSPFSSPQHQVQPSQLGHIFMPPSPSTTPPHPYQQGPPSYQKQGSHSVAYLPYTASSLSKGSMKKIEITVEPSQRPGTAINRSPSPISNQPSPRNQHSLYTATTPPSSSPSRGISSQPKPPFSVNPVYITYTQPTGPSCTPSPSPRVIPNPTTVFKITVGRATTENLLNLVDQEERSAAPEPIQPISVIPGSGGEKGSHKYQRSSSSGSDDYAYTQALLLHQRARMERLAKQLKLEKEELERLKSEVNGMEHDLMQRRLRRVSCTTAIPTPEEMTRLRSMNRQLQINVDCTLKEVDLLQSRGNFDPKAMNNFYDNIEPGPVVPPKPSKKDSSDPCTIERKARRISVTSKVQADIHDTQAAAADEHRTGSTQSPRTQPRDEDYEGAPWNCDSCTFLNHPALNRCEQCEMPRYT
On to B2, for which the binding entry in assay [2] is reported as “binds”.

B3: endogenous TAB1 (TAK1 binding protein 1) (protein, UniProt Q15750 1-504)
chain: MAAQRRSLLQSEQQPSWTDDLPLCHLSGVGSASNRSYSADGKGTESHPPEDSWLKFRSENNCFLYGVFNGYDGNRVTNFVAQRLSAELLLGQLNAEHAEADVRRVLLQAFDVVERSFLESIDDALAEKASLQSQLPEGVPQHQLPPQYQKILERLKTLEREISGGAMAVVAVLLNNKLYVANVGTNRALLCKSTVDGLQVTQLNVDHTTENEDELFRLSQLGLDAGKIKQVGIICGQESTRRIGDYKVKYGYTDIDLLSAAKSKPIIAEPEIHGAQPLDGVTGFLVLMSEGLYKALEAAHGPGQANQEIAAMIDTEFAKQTSLDAVAQAVVDRVKRIHSDTFASGGERARFCPRHEDMTLLVRNFGYPLGEMSQPTPSPAPAAGGRVYPVSVPYSSAQSTSKTSVTLSLVMPSQGQMVNGAHSASTLDEATPTLTNQSPTLTLQSTNTHTQSSSSSSDGGLFRSRPAHSLPPGEDGRVEPYVDFAEFYRLWSVDHGEQSVVTAP
B3: the binding result in assay [2] is “binds”.

B4: endogenous TAK1 (transforming growth factor-β-activated kinase 1) (enzyme, UniProt O43318 1-606)
chain: MSTASAASSSSSSSAGEMIEAPSQVLNFEEIDYKEIEVEEVVGRGAFGVVCKAKWRAKDVAIKQIESESERKAFIVELRQLSRVNHPNIVKLYGACLNPVCLVMEYAEGGSLYNVLHGAEPLPYYTAAHAMSWCLQCSQGVAYLHSMQPKALIHRDLKPPNLLLVAGGTVLKICDFGTACDIQTHMTNNKGSAAWMAPEVFEGSNYSEKCDVFSWGIILWEVITRRKPFDEIGGPAFRIMWAVHNGTRPPLIKNLPKPIESLMTRCWSKDPSQRPSMEEIVKIMTHLMRYFPGADEPLQYPCQYSDEGQSNSATSTGSFMDIASTNTSNKSDTNMEQVPATNDTIKRLESKLLKNQAKQQSESGRLSLGASRGSSVESLPPTSEGKRMSADMSEIEARIAATTAYSKPKRGHRKTASFGNILDVPEIVISGNGQPRRRSIQDLTVTGTEPGQVSSRSSSPSVRMITTSGPTSEKPTRSHPWTPDDSTDTNGSDNSIPMAYLTLDHQLQPLAPCPNSKESMAVFEQHCKMAQEYMKVQTEIALLLQRKQELVAELDQDEKDQQNTSRLVQEHKKLLDENKSLSTYYQQCKKQLEVIRSQQQKRQGTS
Take B4: the binding result in assay [3] was “binds”.
